Test results from patent US20160207893A1, “NOVEL CALCIUM MODULATORS” (Myotherix, Inc., priority 2014, published 2016).

Test system: iCell Cardiomyocytes (hIPS cardiomyocytes)
Assay: Calcium transient dynamics in cardiomyocytes derived from human stem cells by Kinetic Image Cytometry
Format: cell-based
Settings: reference compounds at 1 uM; under each experimental condition; 0.1% DMSO vehicle

`COC(=O)C1=C(C)NC(C)=C(C(=O)OC)C1c1ccccc1[N+](=O)[O-]` [nifedipine, reference compound] was tested, and the “CTD75 relative to vehicle control” value was ≤ 85 % of vehicle control.
